Results of single-concentration screens

The values are deposited in ChEMBL (CHEMBL3988442, “University of Dundee, Small-Polar-MMV Screening Library” (2021)).

Mtb cholesterol medium: 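Phenotypic screen: M. tuberculosis growth, cholesterol and DPPC medium, 4 days; the read-out is not stated. Tested at 50 µM. The record gives no direction; compounds that gave an IC50 in retests scored well above the rest, so higher reads as more growth inhibition. About 69,000 compounds were tested under these conditions; 0.54% (about 370) showed 50% or more at least once.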
Mtb glucose medium: 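Phenotypic screen: M. tuberculosis growth, glucose 7H9 medium, 3 days; the read-out is not stated. Concentration: 50 µM. Higher reads as more growth inhibition (inferred: compounds with an IC50 in retests scored well above the rest). About 69,000 compounds were tested under these conditions; 1.1% (about 760) showed 50% or more at least once.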

Values are the deposited “Percent Effect”, in %. How 0% and 100% were set is not recorded. Most values in the screen are low, and negative values occur. The compounds are a random part of those screened. Two or more numbers in one place are separate tests of the same structure; such repeats can differ widely.

structure	Mtb cholesterol medium	Mtb glucose medium
Cl.c1cn(-c2cncc(C3CCNCC3)n2)cn1	-14.11%	-1.644%
O=C(O)C(F)(F)F.c1ccn(Cc2nnc3n2CCCN(Cc2ccoc2)C3)c1	7.794%	2.065%
CN1CCCC1CNC(=O)CCCOc1cccc(Br)c1 (centres undefined)	-1.897%	-12.98%
CN(C)C(=O)N1CC2(CCN(S(=O)(=O)C3CC3)CC2)c2ccccc21	6.909% & 0.4527%	-5.068% & 0.07803%
Cc1nc(N)cc(C2(C)CCCNC2)n1 (centres undefined)	-15.53% & 3.511%	9.215%
CC(CN1CCN(C)CC1)NC(=O)c1cc(Cl)c2c(c1)OCO2 (centres undefined)	-11.39%	-2.654% & -1.583%
Cc1cnn(C(C)C2CC2)c1NC(=O)c1ncccc1O (centres undefined)	-2.499%	8.995%
CN(C)c1cc(CNC(=O)Nc2ccc(S(C)(=O)=O)nc2)ccn1	-9.807%	-16.11%
Cc1noc(C(C)C)c1C(=O)N1CCCN(Cc2cscn2)CC1	3.76%	1.657%
O=C(O)C(F)(F)F.[H][C@]12CCC(=O)N(c3cccnc3)[C@@]1([H])CCN2C(=O)c1ccc(C#N)cc1	-5.147%	-6.469%
COc1ccc(-c2ccnc(N)c2)c(OC)c1	-23.79%	0.3381% & -0.4323%
CC(CO)(CO)NC(=O)C1CCC(=O)N(Cc2ccc(Cl)cc2)C1 (centres undefined)	-1.743%	6.648%
COc1cccc2c1OCC(C(=O)N1CCC(N3CCOC3=O)CC1)C2 (centres undefined)	14.77%	8.73%
Cc1ccc(C(CNC(=O)c2cc(CC(C)C)nn2C)N(C)C)cc1 (centres undefined)	-6.62%	6.783%
CC(=O)N1CCC1c1nc(-c2ccc(C)s2)no1 (centres undefined)	-6.691% & -9.368%	8.747%
O=C(O)C(F)(F)F.O=C(O)C(F)(F)F.O=C(O)C(F)(F)F.[H][C@@]12CN(Cc3cccnc3)C[C@]1([H])[C@H](OC)CCN2Cc1cnn(C)c1	-3.09%	11.3%
CCOCCN1CCN(CC(=O)NC2(C#N)CCCC2)CC1C (centres undefined)	5.731%	-65.82% & -5.496%
CN(C)CC1CN(CC(=O)N2CCc3ccccc32)CCO1 (centres undefined)	-6.685%	-30.76%
CC(C)n1cnnc1C1CCCN(C(=O)COCc2ccccc2)C1 (centres undefined)	-38.72%	-7.051%
COc1cccc(NC(=O)NCC(C)(O)CCSC)c1OC (centres undefined)	13.65%	12.12% & 14.06%
[H][C@]12CN(C(=O)c3cnccc3C)C[C@@]1(C(=O)O)CN(c1ncccn1)C2	-4.966%	-11.92%
CCOc1cc([C@H]2N[C@@H](c3nc(C)cs3)Cc3ccsc32)ccc1OC	36.41% & 32.37%	33.84%
COc1cc(C)nc(N2CCN(C(=O)CNC(C)(C)C)CC2)n1	-5.942%	-33.44%
CC(=O)N1CCC(N2C[C@@H](F)[C@@H](OCc3nc4ncccc4[nH]3)C2)CC1	-20.03%	-25.39% & -8.676%
O=C(c1ccc[nH]1)N1CCc2nnc(Cn3cccn3)n2CC1	11.18%	10.31%
Cc1nc(C)n(CC2CCCCN2Cc2cnc(C)s2)n1 (centres undefined)	8.894%	15.57%
COC1(CNC(=O)NCCc2ccccc2)CCSC1 (centres undefined)	-5.793%	-7.969%
Cc1ccc(NC2CCN(C(=O)c3cc(C(N)=O)cs3)CC2)nn1	-2.796%	-15.89%
N[C@H]1CN(C(=O)Cc2ccc(CO)cc2)C[C@@H]1C1CC1	-12.09%	1.858% & -19.3%
Fc1ccc(N2CCN(CCCc3cn[nH]c3)CC2)cc1	4.687%	-17.82%
COc1ccc(C[C@H]2CN(C(=O)CS(C)(=O)=O)CC[C@H]2OC)cc1	1.682%	9.634%
Cc1cc(N2CCCC2c2cnccn2)ncn1 (centres undefined)	11.53%	8.539%
CCNc1cc2c(nn1)CCN(C(=O)c1cc3nc(C)ccc3o1)C2	-30.82%	-14.91%
O=C(Cc1cccc(F)c1)NC1CCCc2cn[nH]c21 (centres undefined)	-10.17%	30.14%
Cc1ccnc(N2CCC(NCCOc3ccccc3)CC2)n1	-9.17%	2.366%
COc1cc(CN2CCN(c3cccc(OC)c3)C(=O)C2)cc(OC)c1	-10.63%	-10.92% & -13.44%
COc1cccc2c1OCC(C(=O)N1CCN(CCS(C)(=O)=O)CC1)C2 (centres undefined)	-8.323% & 3.033%	-4.095%
COC(=O)c1ccc2ccn(CC3CCCCO3)c(=O)c2c1 (centres undefined)	-7.376% & 0.08527%	-2.14%
O=C(O)C(F)(F)F.[H][C@@]12CCCO[C@]1([H])[C@@H](OCc1cccnc1)CN2C(=O)c1occc1C	-10.14%	4.908%
Cc1nccn1CCCC(=O)N1CCN(c2cccnc2)CC1	12.16%	-6.308% & 0.1511%
CN(C)C(=O)C1(c2cnccn2)CCCN1C(=O)Cc1ccsc1 (centres undefined)	3.002% & -4.242%	-20.57%
CC1(C(=O)NCc2cc(F)cc(F)c2)CCOCC1	-11.26%	-5.555%
CCN(C)S(=O)(=O)NCC1CCN(Cc2ccccc2F)C1 (centres undefined)	-23.77%	1.876%
CCc1noc(C(C)N2CCN(CCOCC(F)(F)F)CC2)n1 (centres undefined)	-14.47%	0.4037%
COCCN1CCC(Cc2cnc(-c3ccccc3C(=O)O)cn2)CC1	-16.74%	-26.32%
CC(c1nccs1)N(C)C(=O)c1cc(CN(C)Cc2ccccc2)on1 (centres undefined)	-32.61%	-25.14% & 6.752%

Once more, the final 3:

structure,Mtb cholesterol medium,Mtb glucose medium
CCc1noc(C(C)N2CCN(CCOCC(F)(F)F)CC2)n1 (centres undefined),-14.47%,0.4037%
COCCN1CCC(Cc2cnc(-c3ccccc3C(=O)O)cn2)CC1,-16.74%,-26.32%
CC(c1nccs1)N(C)C(=O)c1cc(CN(C)Cc2ccccc2)on1 (centres undefined),-32.61%,-25.14% & 6.752%